According to PubChem BioAssay AID330 (DTP/NCI, 2004):
The list shows only some results of the screen, not a fair sample: it is rich in T/C values a quarter to a half above the control, in often repeated tests (any T/C) and in doses without a T/C. Other doses and runs of a compound stand elsewhere. T/C: endpoint of the treated group in % of that of the vehicle group. Some entries give survivors of the animals treated and no T/C: the source holds a T/C of zero for them, seemingly a mark for toxic or unscored doses. Some survivor counts are full or nearly so, which does not show that the dose was tolerated: survival well below the control is almost never listed, so the zero probably covers shortened survival too. Counts of survivors are from the toxicity check (mostly the fifth day) where no day follows; animals may have died later. Schedule codes are those of the source, taken here to give the interval after Q, in days (D) or hours (H), and the number of doses after X. For survival time, the PubChem record calls one and a half times the control and up active, and a quarter to a half above the control has no call in these data; cut-offs in other NCI protocols can differ. Some entries were tested several times; the results are listed from low to high. Some T/C values carry the count of animals alive at the toxicity check (mostly the fifth day); without a count, all were alive then.

System: P388 leukemia ip, CD2F1 mice, survival T/C
Assay: NCI In Vivo Anticancer Drug Screen. Data for tumor model P388 Leukemia (intraperitoneal) in CD2F1 (CDF1) mice
Conditions: T/C endpoint: median survival time, higher T/C = longer survival
[1] = dose: 100.0 mg/kg/injection, schedule: Q01DX005 (ip), vehicle: saline with Tween-80
[2] = dose: 200.0 mg/kg/injection, schedule: Q01DX005 (ip), vehicle: saline
[3] = dose: 50.0 mg/kg/injection, schedule: Q01DX009 (ip), vehicle: Klucel (hydroxypropylcellulose) (HPC)
[4] = dose: 100.0 mg/kg/injection, schedule: Q01DX009 (ip), vehicle: Klucel (hydroxypropylcellulose) (HPC)
[5] = dose: 200.0 mg/kg/injection, schedule: Q01DX009 (ip), vehicle: Klucel (hydroxypropylcellulose) (HPC)
[6] = dose: 50.0 mg/kg/injection, schedule: Q01DX009 (ip), vehicle: water
[7] = dose: 100.0 mg/kg/injection, schedule: Q04DX003 (ip), vehicle: water
[8] = dose: 200.0 mg/kg/injection, schedule: Q01DX009 (ip), vehicle: saline with Tween-80
[9] = dose: 400.0 mg/kg/injection, schedule: Q01DX001 (ip), vehicle: Klucel (hydroxypropylcellulose) (HPC)
[10] = dose: 100.0 mg/kg/injection, schedule: Q01DX009 (ip), vehicle: saline with Tween-80
[11] = dose: 240.0 mg/kg/injection, schedule: Q01DX005 (ip), vehicle: saline with Tween-80
[12] = dose: 200.0 mg/kg/injection, schedule: Q01DX005 (ip), vehicle: Klucel (hydroxypropylcellulose) (HPC)
[13] = dose: 400.0 mg/kg/injection, schedule: Q04DX003 (ip), vehicle: saline with Tween-80

For `CCCC1(CCC)NC(=O)N(CC(=O)OCC)C1=O`, the survivor count (dose: 400.0 mg/kg/injection, schedule: Q01DX001 (ip), vehicle: saline) was 6 of 6.

In the case of `COC1=CC(=Nc2cc(Br)c(O)c(Br)c2)C=CC1=O`, the survivor count [1] is reported as 3 of 5 and the survivor count (dose: 200.0 mg/kg/injection, schedule: Q01DX005 (ip), vehicle: saline with Tween-80) is reported as 0 of 5.

For `CCCCCCCCCOCC(COP(=O)([O-])OCC[N+](C)(C)C)OC` (centres undefined), the survivor count [2] was 3 of 5.

In the case of `Cc1ccc(S(=O)(=O)OC2C(O)CC(=O)C(OC(=O)c3ccccc3)C2OC(=O)c2ccccc2)cc1` (centres undefined), the survivor count (dose: 200.0 mg/kg/injection, schedule: Q01DX001 (ip), vehicle: saline with Tween-80) is reported as 6 of 6.

With `Cc1cc(NC(=S)SCc2ccc3c(c2)OCO3)ccc1Cl` the T/C [3] was 129 % of control, the T/C [4] was 129 % of control and the T/C [5] was 131 % of control. For the same molecule, the survivor count (dose: 400.0 mg/kg/injection, schedule: Q01DX009 (ip), vehicle: Klucel (hydroxypropylcellulose) (HPC)) was 3 of 6.

`CSC(=C[N+](=O)[O-])SC` was tested, and the survivor count [6] was 3 of 6.

For `COc1cccc2c1C(=O)c1c(O)c3c(c(O)c1C2=O)C[C@@](O)(C(C)O)C[C@@H]3OC1CC(N(Cc2ccccc2)Cc2ccccc2)C(O)C(C)O1` (some centres undefined), the T/C (dose: 3.13 mg/kg/injection, schedule: Q01DX009 (ip), vehicle: water) was 146 % of control, the T/C (dose: 6.25 mg/kg/injection, schedule: Q04DX003 (ip), vehicle: water) was 126 % of control and the T/C (dose: 9.4 mg/kg/injection, schedule: Q04DX003 (ip), vehicle: water) was 126 % of control. The T/C (dose: 12.5 mg/kg/injection, schedule: Q04DX003 (ip), vehicle: water) was 138 % of control, the T/C (dose: 18.8 mg/kg/injection, schedule: Q04DX003 (ip), vehicle: water) was 141 % of control and the survivor count (dose: 25.0 mg/kg/injection, schedule: Q01DX009 (ip), vehicle: water) was 6 of 6. For the same molecule, the survivor count [6] was 6 of 6, the survivor count (dose: 100.0 mg/kg/injection, schedule: Q01DX009 (ip), vehicle: water) was 6 of 6 and the T/C [7] was 129 % of control.

`COc1ccccc1NC(=O)C1=C(C)NC(C)=C(C(=O)Nc2ccccc2OC)C1c1cccc([N+](=O)[O-])c1` was tested, and the survivor count (dose: 240.0 mg/kg/injection, schedule: Q01DX005 (ip), vehicle: Klucel (hydroxypropylcellulose) (HPC)) was 6 of 6.

With `COc1cc(/C=C\C(=O)c2cccc(O)c(=O)c2)cc(OC)c1OC` the survivor count [5] was 4 of 6.

In the case of `COc1ccc(-n2cc[n+](C)c2/C=N\O)cc1`, the survivor count [8] is reported as 0 of 6.

For `COc1ccc2c(c1)[C@@]13CCCC[C@H]1[C@H](N(C)CC3)C21CC1`, the survivor count [9] was 0 of 6.

`CCN(CC)CCOCCOC1CC2CCC1(C)C2(C)C` (centres undefined) was tested, and the survivor count [2] was 0 of 6.

In the case of `CCCCN(CCCC)CCC(=O)c1ccc(Cl)c2ccccc12`, the survivor count [1] is reported as 3 of 6.

With `CCCN1C[C@H](CSC)C[C@@H]2c3cccc4[nH]cc(c34)C[C@H]21` the survivor count [3] was 6 of 6, the survivor count [4] was 3 of 6 and the survivor count [5] was 6 of 6.

For `O=C(O)C(Cc1ccc(N(CCCl)CCCl)cc1)C(=O)O`, the survivor count [10] was 1 of 6 and the survivor count [8] was 0 of 6.

In the case of `CCN(CC)CCCCCCCCOC(=O)c1cc(OC)c(OC)c(OC)c1`, the survivor count (dose: 120.0 mg/kg/injection, schedule: Q01DX005 (ip), vehicle: saline) is reported as 0 of 6 and the survivor count (dose: 240.0 mg/kg/injection, schedule: Q01DX005 (ip), vehicle: saline) is reported as 0 of 6.

With `NNC(=O)CNc1ccc(F)c(Cl)c1` the survivor count [11] was 3 of 6.

With `C=C(C)c1nc2c(=O)nc(N)nc-2n(O)c1C` the survivor count (dose: 75.0 mg/kg/injection, schedule: Q01DX009 (ip), vehicle: saline with Tween-80) was 3 of 6.

With `[S-]c1n[n+](-c2ccccc2)c(-c2ccccc2)s1` the survivor count (dose: 400.0 mg/kg/injection, schedule: Q01DX009 (ip), vehicle: saline with Tween-80) was 5 of 6.

In the case of `CN(C)CCO/N=C1/CC[C@H]2[C@@H]3CC[C@H]4C[C@H](O)CC[C@]4(C)[C@H]3CC[C@]12C`, the survivor count (dose: 50.0 mg/kg/injection, schedule: Q01DX005 (ip), vehicle: Klucel (hydroxypropylcellulose) (HPC)) is reported as 2 of 6, the survivor count (dose: 100.0 mg/kg/injection, schedule: Q01DX005 (ip), vehicle: Klucel (hydroxypropylcellulose) (HPC)) is reported as 0 of 6 and the survivor count [12] is reported as 0 of 6.

`CSc1nc(NC2OC(CO)C(O)C(O)C2O)c(Cl)c(=O)n1C` (centres undefined) was tested, and the survivor count [11] was 2 of 6.

For `COc1cccc2c1C(=O)c1c(O)c3c(c(O)c1C2=O)C[C@@](O)(/C(C)=N\O)C[C@@H]3OC1CC(N)C(O)C(C)O1` (some centres undefined), the T/C (dose: 25.0 mg/kg/injection, schedule: Q04DX003 (ip), vehicle: water) was 127 % of control, the survivor count [6] was 6 of 6 and the T/C (dose: 50.0 mg/kg/injection, schedule: Q04DX003 (ip), vehicle: water, evaluated on day 30) was 127 % of control. For the same molecule, the T/C (dose: 50.0 mg/kg/injection, schedule: Q04DX003 (ip), vehicle: water, evaluated on day 45) was 126 % of control, the T/C [7] was 126 % of control [5 of 6 alive] and the survivor count (dose: 200.0 mg/kg/injection, schedule: Q04DX003 (ip), vehicle: water) was 1 of 6.

In the case of `COc1ccc2c3c1OC1c4[nH]ncc4C[C@H]4[C@@H](C2)N(C)CC[C@]314` (some centres undefined), the survivor count (dose: 400.0 mg/kg/injection, schedule: Q04DX002 (ip), vehicle: saline with Tween-80) is reported as 2 of 6.

In the case of `CCCCCCC([Se]C)C(O)(CCC)CCC` (centres undefined), the survivor count (dose: 100.0 mg/kg/injection, schedule: Q04DX003 (ip), vehicle: saline with Tween-80) is reported as 5 of 6, the survivor count (dose: 200.0 mg/kg/injection, schedule: Q04DX003 (ip), vehicle: saline with Tween-80) is reported as 0 of 6 and the survivor count [13] is reported as 0 of 6.

In the case of `COC1=C(N)C(=O)c2nc(-c3nc(C=O)c(C)c(-c4ccc(OC)c(OC)c4O)c3N)ccc2C1=O`, the T/C (dose: 2.48 mg/kg/injection, schedule: Q01DX009 (ip), vehicle: other, evaluated on day 5) is reported as 127 % of control, the T/C (dose: 2.48 mg/kg/injection, schedule: Q01DX009 (ip), vehicle: other, evaluated on day 23) is reported as 128 % of control [7 of 8 alive] and the survivor count (dose: 3.03 mg/kg/injection, schedule: Q01DX009 (ip), vehicle: DMSO) is reported as 8 of 8. The T/C (dose: 3.05 mg/kg/injection, schedule: Q01DX009 (ip), vehicle: DMSO) was 128 % of control, the T/C (dose: 3.05 mg/kg/injection, schedule: Q01DX009 (ip), vehicle: other) was 128 % of control and the T/C (dose: 3.72 mg/kg/injection, schedule: Q01DX009 (ip), vehicle: other, evaluated on day 5) was 127 % of control. The T/C (dose: 3.72 mg/kg/injection, schedule: Q01DX009 (ip), vehicle: other, evaluated on day 23) was 128 % of control and the survivor count (dose: 12.4 mg/kg/injection, schedule: Q01DX009 (ip), vehicle: other) was 7 of 8.

With `COc1ccccc1N=NNc1ccc(S(=O)(=O)NC(C)=O)cc1` the survivor count [12] was 5 of 5.

With `N=C(N)c1ccc(OCCCOc2ccc(C(=N)N)cc2)cc1` the survivor count (dose: 50.0 mg/kg/injection, schedule: Q01DX005 (ip), vehicle: saline) was 0 of 5, the survivor count (dose: 100.0 mg/kg/injection, schedule: Q01DX005 (ip), vehicle: saline) was 0 of 5 and the survivor count [2] was 0 of 5.

With `CCC(=O)OC1CC2(C)C(=CC1=O)CCC1C2CCC2(C)C(OC(=O)CC)CCC12` (centres undefined) the survivor count [13] was 6 of 6.

`NCC12CC3CC(CC(C3)C1)C2` was tested, and the survivor count [10] was 3 of 6 and the survivor count [8] was 0 of 6.

`C[C@]12CC[C@H](OC(=O)COc3ccc(N(CCCl)CCCl)cc3)C[C@@H]1CC[C@@H]1[C@@H]2CC[C@]2(C)NC(=O)CC[C@@H]12` was tested, and the T/C (dose: 4.0 mg/kg/injection, schedule: Q01DX009 (ip), vehicle: saline with Tween-80) was 139, 140, 149 % of control and the survivor count (dose: 64.0 mg/kg/injection, schedule: Q01DX009 (ip), vehicle: saline with Tween-80) was 6 of 6.

With `CN(C)C(=S)NCc1ccccc1` the survivor count [13] was 2 of 6.

For `Clc1ccc(-n2ccc(=N/N=C/c3ccc(Cl)c(Cl)c3)cc2)cc1`, the survivor count (dose: 200.0 mg/kg/injection, schedule: Q01DX001 (ip), vehicle: Klucel (hydroxypropylcellulose) (HPC)) was 1 of 6 and the survivor count [9] was 0 of 6.
